Data as given in PMC9224678.
No constants are given. Whether binding was seen depends on the method and setting. Binding calls can cover weak binding; strength is not graded here.

How the values were obtained:
[1] = target: BbPex26 (Beauveria bassiana) (UniProt J4KR20); assay: two-hybrid; Matchmaker GAL4 Two-Hybrid System 3; baits BbPex6 and BbPex26 in pGBKT7, preys BbPex1 and BbPex6 in pGADT7; yeast strain YH109; positive when transformants grew on SD/Trp-Leu-His-Ade plates
[2] = target: BbPex6 (Beauveria bassiana) (UniProt J5JLL8); assay: as above

Row | binding [1] | binding [2] | Substance
1 | binds |  | BbPex6 (from UniProt J5JLL8)
2 | binds | binds | BbPex1 (from UniProt J4KR43)
